Data reported in paper PMC11768549, “Optimization of Toxicity, Biodegradability, and Skin Irritation in Formulations Containing Mixtures of Anionic and Nonionic Surfactants Combined with Silica Nanoparticles” (Toxics, 2025).
Several values for one entry are separate records, joined by “and”; a condition that tells them apart may be missing. Equal entries are not always repeated.

Experiment: Static biodegradation test (OECD 301E), DOC removal
Conditions: 28 days, initial 25 mg·L^−1, aerobic, dark
Description: The static biodegradation tests were conducted according to the OECD 301E guidelines, which focus on the removal of organic compounds measured as dissolved organic carbon (DOC). Solutions of the surfactant and surfactant–co-surfactant mixtures, serving as the sole carbon source for microorganisms, were tested in a mineral medium inoculated and incubated under aerobic conditions in the dark for 28 days. The initial concentration of the test substance for surfactant and surfactant–co-surfactant mixtures was set at 25 mg·L^−1.
The surfactant solution, for which biodegradability was to be determined, was inoculated with 0.5 mL of water from the secondary treatment stage of a sewage treatment plant (STP) operating with activated sludge (plus code: 597G+W2, Granada, Spain). The biodegradation process was monitored by measuring the residual surfactant concentration over time through DOC determinations in samples, filtered through a 0.45 µm Millipore membrane, using the total organic carbon (TOC) analyser Shimadzu VCSH/CSH (Shimadzu Co., Kyoto, Japan). Reference assays were performed with an easily biodegradable surfactant (linear alkylbenzene sulfonate) to determine the activity of the microbial population present in the test medium. […] All samples were tested in duplicate. The experimental setup included two flasks for the blank, two for the reference surfactant, two for the abiotic assay, and two for each of the surfactant concentrations tested.
The biodegradation of surfactants and their binary mixtures was assessed under aerobic conditions following the OECD 301E guidelines for ready biodegradability. The process was tracked by measuring the dissolved organic carbon (DOC) in the samples over time. […] Abiotic control tests, using HgCl2 to inhibit biological activity, confirmed that surfactant concentrations remained at nearly 100% throughout the degradation period. […] Figure 1 illustrates the progression of ultimate biodegradation of the surfactants and binary mixtures over the testing period. The assays were initiated with surfactant concentrations of 25 mg·L^−1.
To compare and quantify the biodegradation test, two key parameters of the biodegradation profiles were defined and analysed: (a) Half-life (t1/2) is the time required for the substrate concentration to decrease by 50% from the start of the biodegradation process. This value is determined using graphical methods based on the biodegradation curve. (b) Surfactant biodegradability (B) is defined as the percentage of surfactant that is biodegraded after 50 h of assay. Half-time and surfactant biodegradability results are shown in Table 5, together with mineralization values obtained using Equation (11).(11) Mineralization (%)=DOCi− [DOC]f/ [DOC]i·100 where […]

Substance | % Mineralization
Laureth-4 Carboxylic Acid [EC-R12–14E3] | 57.35% and 57.35 ± 2.80%
Laureth-11 Carboxylic Acid [EC-R12–14E10] | 69.35 ± 3.21%
Laureth-11/Myreth-11 [FAE-R12–14E11] | 61.30 ± 2.60%
Capryleth-6 Carboxylic Acid [EC-R8E5] | 71.20% and 71.20 ± 4.32%
